# Source: PubChem BioAssay AID2417 (National Center for Advancing Translational Sciences (NCATS), 2010)
# About 4,300 (3.1%) of roughly 140,000 compounds were called active. The inconclusive results got no clear call from the source; some entries with a clear call stand among them for comparison.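 The calls were made as follows: active = readout at or below -70, meaning at least 70% loss of cells showing the perinucleolar compartment, a nuclear body marking cancer cells; inconclusive = readout between -30 and a set limit; inactive = the rest.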
# Assay: High Content Assay for Compounds that inhibit the Assembly of the Perinucleolar Compartment;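 also: plate controls were DMSO wells for no effect and camptothecin positive control wells for full effect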
# Conditions: PC3M PTB-GFP, PNC prevalence imaging, 16 h; at 10 µM; hits give low values
# Outline: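 Compounds are pinned in duplicate onto adhered PC3M cells stably expressing GFP-tagged PTB and incubated 16 h at 37 C. Cells are then fixed, nuclei stained with Hoechst, and PNC-positive cells counted.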
row,SMILES,"activity change (PNC), negative = inhibition"
1,C=CCNC(=O)/C(C#N)=C/c1c(N(Cc2ccccc2)Cc2ccccc2)nc2ccccn2c1=O,inactive: 36.9%
2,COc1ccc(C(=O)NC(=S)Nc2ccccc2N2CCN(S(C)(=O)=O)CC2)cc1OC,inconclusive: -35.9%
3,CC(C)NC(=O)c1cc2cc([N+](=O)[O-])ccc2s1,inconclusive: -32.3%
4,Clc1ccc(/C=N/Nc2nn[nH]n2)cc1,active: -100%
5,Cc1cc2c(c(N3CCOCC3)n1)C(=O)OC2,inconclusive: -54.1%
6,Cc1nc2ccccc2n1CCC(=O)Nc1cccc(F)c1,inconclusive: -38.1%
7,COc1ccc(NC2c3ncccc3C(=O)N2Cc2ccccc2)c(OC)c1 (stereo not given),active: -100%
8,Cc1cc(C)nc(SCCC(=O)Nc2ccccc2)n1,inconclusive: -56.8%
9,O=C1NCCCC1C(=O)N1CCN(C(=O)C2CCCNC2=O)CC1 (stereo not given),inconclusive: -61.6%
10,Cc1ccc(NC(=O)CN2CCCN(S(=O)(=O)c3ccc(Br)s3)CC2)cc1,inactive: 29.2%
11,N#Cc1ccc2ccn(CC(=O)NCc3ccco3)c2c1,inconclusive: -76.7%
12,CCC12CN(C(=O)c3ccc(OC)cc3)CC(CC)(CN(C(=O)c3ccc(OC)cc3)C1)C2=O,inactive: 11.4%
13,CC(C)Nc1nc(NC(C)C)nc(Oc2ccc(OCc3ccccc3)nn2)n1,inconclusive: -36.6%
14,COc1cc(C(=O)N2c3ccccc3CC2C)cc(OC)c1OC (stereo not given),active: -82%
15,Cc1nc(CS(=O)(=O)c2ccc(Cl)cc2)cc(Sc2ccc(Cl)cc2)n1,inactive: 23.1%
16,CC(=O)C1CCN(Cc2ccccc2)CC1,inactive: 25.1%
17,O=C1c2ccccc2C(=O)c2c1ccc(C(=O)N1CCCCC1)c2NCCO,inconclusive: -42.9%
18,Cc1ccc2nc(N3CC(=O)Nc4ccccc43)nc(-c3ccccc3)c2c1,inactive: -9.15%
19,CCOc1ccc2nc(NCCNC(=O)C(C)C)c(C)cc2c1,inconclusive: -34.8%
20,CCOc1ccc2nc(SCC(=O)Nc3ccc4c(c3)OCCO4)[nH]c2c1,inactive: -0.238%
21,CCN(CC)C(=O)CC(c1ccc(F)cc1)c1ccc(OC(C)C)cc1 (stereo not given),inconclusive: -72.3%
22,CCN(Cc1ccccc1)Cc1c(F)cccc1F,inconclusive: -53.3%
23,CC(O)C(C(=O)OCc1ccc([N+](=O)[O-])cc1)N1C(=O)c2ccccc2C1=O (stereo not given),inconclusive: -51.5%

row,SMILES,"activity change (PNC), negative = inhibition"
1,CCc1cc2c(=O)c(-c3ccc4c(c3)OCCO4)c(C)oc2cc1OS(C)(=O)=O,inactive: 4.61%
2,CCCC(c1nnnn1CC1CCCO1)N1CCN(c2nc3ccccc3s2)CC1 (stereo not given),inconclusive: -45.1%
3,CCOC(=O)c1cccc(NC(=O)C2CCCO2)c1 (stereo not given),inconclusive: -71.1%
4,O=C(C1CCN(S(=O)(=O)c2cccs2)CC1)N1CCc2ccccc2C1,inconclusive: -39.5%
5,O=C(NCc1ccccc1)c1cccc(COc2ccc(Cl)cc2)c1,inactive: -4.63%
6,O=C(CCS(=O)(=O)Cc1ccccc1)N1CCN(Cc2ccccc2)CC1,inactive: -29.8%
7,O=C(ON=C1CCN(S(=O)(=O)c2ccccc2)CC1)c1cccc(Cl)c1,active: -100%
8,CCn1cc(C(C)NC(=O)COc2ccc(Cl)cc2C)c(C)n1 (stereo not given),active: -95%
9,O=C(Nc1ccc2c(c1)OCCO2)NC1(C(F)(F)F)Oc2ccccc2O1,inconclusive: -34.7%
10,O=C1C2C3C=CC(C3)C2C(=O)N1Cc1ccc(CN2C(=O)C3C4C=CC(C4)C3C2=O)cc1 (stereo not given),inconclusive: -30.2%
11,CC(NC(=O)NC1CCCCC1)C(c1cccs1)N1CCN(Cc2ccccc2)CC1 (stereo not given),inconclusive: -31.8%
12,CN1CCN(CCCNC(=O)c2ccc3c(c2)N(Cc2ccccc2)CCS3)CC1,inconclusive: -37.2%
13,O=C(NCCc1cccc(F)c1)/C(=C/c1cccnc1)NC(=O)c1ccccc1,inactive: 27.7%
14,Cc1cccc(NC(=O)CSc2nnc([C@@H](N)Cc3ccccc3)o2)c1C,inactive: 4.47%
15,CCC(C(=O)N1CC2(C)CC1CC(C)(C)C2)N1C(=O)c2ccccc2C1=O (stereo not given),inconclusive: -55.1%
16,COC(=O)c1ccc(Cl)c(NS(=O)(=O)c2ccc3c(c2)OCCO3)c1,inconclusive: -31.3%
17,COC1=NS(=O)(=O)c2ccccc21,inconclusive: -71.6%
18,O=C(c1ccc(Cl)cc1Cl)N1CCC(c2nc3c(nnn3Cc3ccco3)c(=O)[nH]2)CC1,inconclusive: -41%
19,CCOC(=O)/C(=C\c1cccc(O)c1)c1nc2sc(C)c(C)c2c(=O)[nH]1,inconclusive: -35.5%
20,CCOC(=O)N1CCN(Cc2cc(=O)oc3cc4c(cc23)CCC4)CC1,inconclusive: -36.4%
21,Cc1cc(C)cc(C(=O)NC(=S)Nc2ccc3c(c2)OCCO3)c1,inactive: 13.8%
22,C/C(=N\NC(=O)Cc1ccc(F)cc1)c1ccc(F)cc1,inconclusive: -38%
23,CCNC(=S)NNC(=O)c1ccccn1,inconclusive: -36.2%

row,SMILES,"activity change (PNC), negative = inhibition"
1,CCCCCCOc1ccc(N2C(=O)CC(S/C(N)=N/N=C(\C)c3cccs3)C2=O)cc1 (stereo not given),inconclusive: -43.1%
2,Cc1ccsc1C1C2=C(CC(C)(C)CC2=O)Nc2ncnn21 (stereo not given),inactive: 4.61%
3,COc1ccc(-c2onc3ccc(Br)cc23)cc1,inconclusive: -31.8%
4,COc1ccccc1CNc1cc(C)ccc1C,inconclusive: -45.5%
5,COC(=O)CSc1cc(C)nc(NC(C)=O)n1,inconclusive: -39.1%
6,C/C(=N/NC(=O)c1cccs1)c1ccc(NC(=O)COc2ccc(Cl)cc2)cc1,inactive: 49.2%
7,N#CCSc1nc2ccccc2c(=O)n1CCC(=O)NCCc1ccccc1,inconclusive: -49.4%
8,CC(C)Oc1cccc(C(=O)NC(=S)Nc2ccccc2)c1,active: -101%
9,COc1ccc(CCN2C(=O)NC(NS(=O)(=O)c3ccc(N)cc3)(C(F)(F)F)C2=O)cc1OC (stereo not given),inactive: 36.2%
10,Cc1c(N2C(=O)CSC23C(=O)Nc2ccccc23)c(=O)n(-c2ccccc2)n1C (stereo not given),inactive: 9.46%
11,Fc1ccc(C2NCCn3cccc32)cc1 (stereo not given),inactive: 36.3%
12,COC(=O)c1ccc(OC)c(CSc2nnc(COc3ccc(OC)cc3)o2)c1,inconclusive: -41.4%
13,Cc1cc(C)c([N+](=O)[O-])cc1-c1ccc(/C=N/c2c(-c3ccco3)nc3ccccn23)o1,inconclusive: -54.5%
14,COc1ccc(N2CCN(c3ccc(NC(=O)C4CCCCC4)cc3C#N)CC2)cc1,inconclusive: -43.7%
15,Cc1sc(NC(=O)c2ccccc2)c(C(=O)N2CCN(C)CC2)c1C,inconclusive: -66.4%
16,COc1ccc2cc(C(=O)N3CCCCCC3)sc(=O)c2c1OC,inactive: -2.13%
17,C/C(=N\NC(=O)c1ccccc1)c1nc2ccccc2n1C,inactive: -18.6%
18,COc1ccc(CN2CCC(C(=O)N(C)CCc3ccc(OC)c(OC)c3)CC2)c(OC)c1,inactive: 16.6%
19,CCOC(=O)c1cccc(NC(=O)C2(S(=O)(=O)c3ccc(C)cc3)CC2)c1,inconclusive: -40.6%
20,COc1cccc(CNC(=O)c2ccc(NC(=O)C3CCCO3)cc2)c1 (stereo not given),inconclusive: -42.4%
21,O=C1c2ccccc2C(=O)N1CCCCCc1nc(-c2ccccc2)no1,inconclusive: -31.3%
22,Cc1ccc(-c2noc(CCC(=O)NCC3CCCO3)n2)cc1 (stereo not given),inactive: 4.31%
23,COc1ccc(CNC(=S)N/N=C/c2ccncc2)cc1,inconclusive: -47.5%

# 5 of the compounds above, tab-delimited.
row	SMILES	activity change (PNC), negative = inhibition
12	CCC12CN(C(=O)c3ccc(OC)cc3)CC(CC)(CN(C(=O)c3ccc(OC)cc3)C1)C2=O	inactive: 11.4%
13	CC(C)Nc1nc(NC(C)C)nc(Oc2ccc(OCc3ccccc3)nn2)n1	inconclusive: -36.6%
14	COc1cc(C(=O)N2c3ccccc3CC2C)cc(OC)c1OC (stereo not given)	active: -82%
15	Cc1nc(CS(=O)(=O)c2ccc(Cl)cc2)cc(Sc2ccc(Cl)cc2)n1	inactive: 23.1%
16	CC(=O)C1CCN(Cc2ccccc2)CC1	inactive: 25.1%

# (continued)

row,SMILES,"activity change (PNC), negative = inhibition"
1,CCOC(=O)COc1cccc2c(=O)n(CC(=O)NCCc3ccc(OC)c(OC)c3)ccc12,inconclusive: -71.5%
2,O=C(Cn1c(=O)n(CC2CCCO2)c(=O)c2ccccc21)c1ccccc1 (stereo not given),inconclusive: -42.3%
3,O=C(Nc1ccc2oc(-c3ccccc3)nc2c1)c1ccncc1,inconclusive: -74.4%
4,O=C(Nc1ccccc1)Nc1nnc(CSCc2ccccc2Cl)s1,active: -88%
5,CC(C)Cc1nnc(NC(=O)Cc2ccccc2[N+](=O)[O-])s1,inconclusive: -38.5%
6,CCc1cccc(CC)c1NC(=O)C1CN(S(=O)(=O)c2ccccc2)CCN1S(=O)(=O)c1ccccc1 (stereo not given),active: -111%
7,O=C(CSc1n[nH]c(-c2ccc(S(=O)(=O)N3CCCCC3)cc2)n1)Nc1nccs1,inconclusive: -31.7%
8,C/C(=N\NC(=O)C1CC1c1ccccc1)c1cccc([N+](=O)[O-])c1 (stereo not given),inactive: 36.2%
9,Cc1ccc2c(c1)CCCN2C(=O)c1c(C)noc1C,inconclusive: -30.4%
10,O=C(Nc1cccc(Cl)c1)Nc1nnc(CSCCOc2ccc(Cl)cc2)s1,inconclusive: -30.3%
11,CCN(CC)C(=O)C(=O)N/N=C/c1cccc(Br)c1,inactive: -22.5%
12,CC(=O)CSc1nnc(NC(=O)CCc2ccccc2)s1,inactive: 13.9%
13,COC(=O)c1cc(C(=O)Nc2ccc(C)cn2)cc([N+](=O)[O-])c1,inconclusive: -48.9%
14,CCN=C1SC(CC(=O)Nc2ccc(C(F)(F)F)cc2)C(=O)N1CC (stereo not given),inconclusive: -41.2%
15,CCOc1ccc(OCC)c(NC(=O)C2CCN(c3ncccn3)CC2)c1,inactive: 15.2%
16,CN(C)CCCN(C(=O)c1sc2ccccc2c1Cl)c1nc2ccc(F)cc2s1,active: -94.3%
17,COC(=O)c1ccc2c(=O)n(CCCCCC(=O)O)c(=S)[nH]c2c1,inconclusive: -40.1%
18,CN(C)C(=O)N1CCC(C(=O)NCc2ccc(F)cc2Cl)CC1,inconclusive: -46.7%
19,COc1cc(OC)nc(S(C)(=O)=O)n1,inconclusive: -50.1%
20,COc1ccc(CCNC(=O)CN2C(=O)c3ccccc3S2(=O)=O)cc1OC,inconclusive: -42.6%
21,CCN(CC)c1ccc(NC(=O)CN2C(=O)CSc3ncccc32)c(C)c1,inactive: -11.9%
